This note sets out measurements from US9034825B2, “Treatment of myocardial injury with humanin analogs” (Albert Einstein College of Medicine of Yeshiva University, priority 2007, dated 2015).

For data set [1], the system named is Sprague-Dawley rats. Kind of data set: ICV infusion of humanin or F6A HN with basal and hyperinsulinemic clamp (Example 2). It is filed as in vivo, rat. The text has this:
(§1) Young (3 mo old, n=6 in each group), male Sprague-Dawley rats (Charles River Laboratories, Wilmington, Mass.) were used for this study. Rats were housed in individual cages and were subjected to a standard light (6:00 AM to 6:00 PM)—dark (6:00 PM to 6:00 AM) cycle. All rats were fed ad libitum using regular rat chow that consisted of 64% carbohydrate, 30% protein, and 6% fat with a physiological fuel value of 3.3-kcal/g chow. 2 to 4 weeks before the in vivo study, the rats were anesthetized by inhalation of isoflurane and ICV cannula was placed in the third ventricle for infusions of humanin, humanin analog F6A HN or artificial CSF (aCSF), as previously described (Muzumdar et al., 2003) (FIG. 6). Briefly, a 26-gauge stainless steel guide cannula (Plastics One, Roanoke, Va.) was chronically implanted into the third ventricles using the following coordinates from bregma: anterior-posterior; +0.2 mm dorsal-ventral; −9.0 mm medial-lateral; 0.0 directly on the mid-sagittal suture, followed by a 28-gauge dummy cannula, inserted to prevent clogging of the guide cannula. The implant was secured to the skull with Caulk Grip dental cement, and the skin was closed over the implant using wound clips. The recovery of rats from the surgical stress was monitored with daily weight, food intake, and movement.
Upon recovery of body weight, usually a week, indwelling catheters were placed in the right internal jugular vein and in the left carotid artery (Muzumdar et al., 2003). The venous catheter was extended to the level of the right atrium, and the arterial catheter was advanced to the level of the aortic arch. Recovery was continued until body weight was within 3% of the pre-operative weight (˜4-6 days). In the rats that received peripheral humanin, only the vascular catheters were placed.
(§2) Studies were performed in unrestrained rats using the insulin clamp technique, in combination with high performance liquid chromatography-purified [3-^3H]glucose, as described previously (Liu et al., 1998). Food was removed for ˜5 h before the in vivo protocol. All studies lasted 360 min and included a 120-min equilibration period, a 120-min basal period for assessment of the basal glucose turnover, and a 120-min hyperinsulinemic clamp period. All rats received ICV infusions (bolus followed by continuous ICV infusions of humanin, F6A HN or aCSF, depending on the group) over the entire 6 hours of the study. At the beginning of the basal period and 120 min before starting the glucose/insulin infusions, a primed-continuous infusion of high performance liquid chromatography-purified [3-^3H]glucose (NEN Life Science Products, Boston, Mass.; 20 μCi of bolus, 0.2 μCi/min) was initiated and maintained throughout the remaining 4 h of the study. In the final 2 hours of the study, the rats were subjected to hyperinsulinemic clamp. The protocol followed during the insulin clamp study was similar to that previously described (Liu et al., 1998). Briefly, a primed-continuous infusion of regular insulin (3 milliunits/kg-min) was administered, and a variable infusion of a 25% glucose solution was started and periodically adjusted to clamp the plasma glucose concentration at 7-8 mM. To prevent endogenous insulin secretion and in order to control for possible effects of ICV infusions on the endocrine pancreas, somatostatin (1.5 μg/kg-min) was also infused in all the groups.
A bolus of humanin (6 μg) was followed by a continuous infusion over 6 hours (total dose of 18 μg, 0.1 μg/kg/min).
F6A HN has one amino acid substitution (F6A-phenylalanine to alanine on position 6) and has been characterized. A bolus of F6 A HN ([…]) was followed by a continuous infusion over 6 hours (total 18 μg, 0.1 μg/kg/min).
Plasma glucose (sample volume 10 μl) was measured by the glucose oxidase method (Glucose Analyzer II, Beckman Instruments, Palo Alto, Calif.). […]

The subject of data set [2] is Sprague-Dawley rats. Put plainly: ICV infusion of IGF-1, IGFBP-3 or NLS mutant with basal and hyperinsulinemic clamp. It is filed as in vivo, rat. The settings on record: for GH: plasma, end of clamp study; for Visceral fat: at sacrifice; for Body weight / Food intake: basal characteristics of group; for IGF-1: peripheral plasma.
Excerpt: as §1, with “chow. In the rats that received ICV infusions,” for “chow.”, “and a” for “and ICV”, “placed ICV” for “placed”, “of IGF-1, IGFBP-3 or IGFBP-3 mutant” for “of humanin, humanin analog F6A HN”, “artificial cerebrospinal fluid” for “artificial CSF”, “(FIG. 1).” for “(FIG. 6).”
Upon recovery of body weight, usually a week, indwelling catheters were placed in the right internal jugular vein and in the left carotid artery (Muzumdar et al., 2003). The venous catheter was extended to the level of the right atrium, and the arterial catheter was advanced to the level of the aortic arch. Recovery was continued until body weight was within 3% of the pre-operative weight (˜4-6 days). In the rats that received peripheral IGFBP-3, only the vascular catheters were placed.
as §2, with “[3-^3H]glucose and [U-^14C]lactate infusions,” for “[3-^3H]glucose,”, “IGF-1, IGFBP-3, IGFBP-3 mutant” for “humanin, F6A HN”, “milliunits/kg·min)” for “milliunits/kg-min)”, “μg/kg·min)” for “μg/kg-min)”, “groups. [U-^14C]Lactate (5 μCi of bolus/0.25 μCi/min) was infused during the last 10 min of the study.” for “groups.”
A bolus of hIGF-1 (0.3 mcg, a gift from Tercica, South San Francisco) was followed by a continuous infusion over 6 hours (total dose of 1 mcg, 0.06 μg/kg/hr).
A bolus of non glycosylated hIGFBP-3 (1.25 μg, generously provided by Celtrix, Mountain View Calif.) was followed by a continuous infusion over 6 hours (total dose of 5.25 mcg, 0.26 μg/kg/hr). […]

Where [3] appears, read: basal characteristics of group, ICV humanin study.
Setting [4] is: basal plasma, ICV humanin study.
The mark [5] stands for this setting: ICV IGFBP-3 or NLS mutant over 6 h, clamp study.
Setting [6] is: ICV IGFBP-3 or NLS mutant over 6 h, hyperinsulinemic clamp 3 mU/kg/min, last 60 min.
Setting [7] is: ICV IGFBP-3 or NLS mutant over 6 h, hyperinsulinemic clamp, last 60 min.
Where [8] appears, read: ICV IGFBP-3 or NLS mutant over 6 h.
The mark [9] stands for this setting: basal plasma, ICV IGFBP-3/mutant study.

On to `CC[C@H](C)[C@H](NC(=O)[C@H](CCC(=O)O)NC(=O)[C@H](CO)NC(=O)[C@@H](NC(=O)[C@H](CC(C)C)NC(=O)[C@H](CC(C)C)NC(=O)[C@H](CC(C)C)NC(=O)[C@H](CC(C)C)NC(=O)[C@H](CS)NC(=O)[C@H](CO)NC(=O)[C@H](Cc1ccccc1)NC(=O)CNC(=O)[C@H](CCCNC(=N)N)NC(=O)[C@@H]1CCCN1C(=O)[C@H](C)NC(=O)[C@@H](N)CCSC)[C@@H](C)O)C(=O)N[C@@H](CC(=O)O)C(=O)N[C@@H](CC(C)C)C(=O)N1CCC[C@H]1C(=O)N[C@H](C(=O)N[C@@H](CCCCN)C(=O)N[C@@H](CCCNC(=N)N)C(=O)N[C@@H](CCCNC(=N)N)C(=O)N[C@@H](C)C(=O)O)C(C)C` [Humanin, maprgfscll lltseidlpv krra], for which the Glucose in the data set on Sprague-Dawley rats [1] (ICV 18 μg over 6 h, hyperinsulinemic clamp 3 mU/kg/min, last 60 min) was determined as 1.4 ± 0.04 g/dL. In addition, the Insulin in the data set with Sprague-Dawley rats [1] (ICV 18 μg over 6 h, hyperinsulinemic clamp, last 60 min) stood at 4.8 ± 0.5 ng/mL. The Visceral fat with Sprague-Dawley rats [1] (at sacrifice, ICV humanin study) is on record as 3.02 ± 0.4 g. In addition, in the data set on Sprague-Dawley rats [1] (setting [3]), the Body weight amounted to 294 ± 28 g and the Food intake was found to be 25.4 ± 0.9 g. In addition, in the data set on Sprague-Dawley rats [1] (setting [4]), the FFA is recorded as 1.19 ± 0.34 mEq/L, the Glucose stood at 1.49 ± 0.07 g/dL and the Insulin amounted to 1.13 ± 0.16 ng/mL.
“IGF-1: hIGF-1, Insulin-like growth factor-1, a gift from Tercica”: the Leptin in the data set with Sprague-Dawley rats [2] (ICV IGF-1 1 μg over 6 h, clamp study) worked out at 2.18 ± 0.48 ng/mL. In the data set on Sprague-Dawley rats [2] (ICV IGF-1 1 μg over 6 h, hyperinsulinemic clamp 3 mU/kg/min, last 60 min), the Glucose stood at 7.3 ± 0.1 mmol/L. The Insulin in the data set on Sprague-Dawley rats [2] (ICV IGF-1 1 μg over 6 h, hyperinsulinemic clamp, last 60 min) was 40.53 ± 6.0 uU/ml. The GH with Sprague-Dawley rats [2] (ICV IGF-1 1 μg over 6 h) came to 2.15 ± 0.94 ng/mL. In the data set on Sprague-Dawley rats [2] (ICV IGF-1 study), the Visceral fat is given as 4.0 ± 0.2 g, the Body weight is reported as 294 ± 14 g and the Food intake is 22 ± 2 g. In addition, in the data set on Sprague-Dawley rats [2] (basal plasma, ICV IGF-1 study), the FFA is reported as 0.70 ± 0.04 mEq/L, the Glucose was 7.6 ± 0.1 mmol/L, the Insulin came to 1.94 ± 0.32 ng/mL and the Leptin turned out to be 0.91 ± 0.05 ng/mL.
Turning to “IGFBP-3: non glycosylated hIGFBP-3 (IGF binding protein-3), provided by Celtrix”, the Leptin in the data set on Sprague-Dawley rats [2] (setting [5]) is 3.05 ± 0.83 ng/mL. Moreover, in the data set with Sprague-Dawley rats [2] (setting [6]), the Glucose was 7.5 ± 0.4 mmol/L. Besides, the Insulin in the data set with Sprague-Dawley rats [2] (setting [7]) came to 57.8 ± 3.8 uU/ml. Besides, in the data set on Sprague-Dawley rats [2] (setting [8]), the IGF-1 was 667 ± 62 ng/mL and the GH was 1.28 ± 0.21 ng/mL. In the data set on Sprague-Dawley rats [2] (ICV IGFBP-3/mutant study), the Visceral fat is given as 4.5 ± 0.7 g, the Body weight is listed as 333 ± 16 g and the Food intake came to 25.8 ± 0.9 g. Besides, in the data set with Sprague-Dawley rats [2] (setting [9]), the FFA was 0.92 ± 0.05 mEq/l, the Glucose was found to be 7.7 ± 0.3 mmol/L, the Insulin was 1.36 ± 0.07 ng/mL and the Leptin was 2.50 ± 0.23 ng/mL.
In the case of “NLS: non-glycosylated NLS mutant of IGFBP-3 with two amino acid substitutions (K228E and R230G)”, the Leptin in the data set with Sprague-Dawley rats [2] (setting [5]) was 2.79 ± 0.77 ng/mL. The Glucose with Sprague-Dawley rats [2] (setting [6]) amounted to 7.7 ± 0.2 mmol/L. The Insulin in the data set with Sprague-Dawley rats [2] (setting [7]) is recorded as 55.4 ± 11.5 uU/ml. For the same compound, in the data set on Sprague-Dawley rats [2] (setting [8]), the IGF-1 worked out at 595 ± 81 ng/mL and the GH turned out to be 2.87 ± 0.94 ng/mL. Besides, in the data set on Sprague-Dawley rats [2] (ICV IGFBP-3/mutant study), the Visceral fat is on record as 5.4 ± 0.6 g, the Body weight stood at 333 ± 15 g and the Food intake was 25.3 ± 1.6 g. In addition, in the data set on Sprague-Dawley rats [2] (setting [9]), the FFA is on record as 0.85 ± 0.11 mEq/l, the Glucose turned out to be 7.7 ± 0.2 mmol/L, the Insulin is 1.24 ± 0.54 ng/mL and the Leptin worked out at 2.09 ± 0.47 ng/mL.
